Results as given in patent US20230227398A1, “MESCALINE DERIVATIVES WITH MODIFIED ACTION” (Mind Medicine, Inc., priority 2021, published 2023).
For some of these results: At least one structure is not confirmed: it was looked up by name or label, or the drawing left a doubt. Some results were stated once for a whole list of compounds, not compound by compound.

Sequences of proteins named here, by UniProt entry; tags and fusion partners are left off.
UniProt P14416, whole entry: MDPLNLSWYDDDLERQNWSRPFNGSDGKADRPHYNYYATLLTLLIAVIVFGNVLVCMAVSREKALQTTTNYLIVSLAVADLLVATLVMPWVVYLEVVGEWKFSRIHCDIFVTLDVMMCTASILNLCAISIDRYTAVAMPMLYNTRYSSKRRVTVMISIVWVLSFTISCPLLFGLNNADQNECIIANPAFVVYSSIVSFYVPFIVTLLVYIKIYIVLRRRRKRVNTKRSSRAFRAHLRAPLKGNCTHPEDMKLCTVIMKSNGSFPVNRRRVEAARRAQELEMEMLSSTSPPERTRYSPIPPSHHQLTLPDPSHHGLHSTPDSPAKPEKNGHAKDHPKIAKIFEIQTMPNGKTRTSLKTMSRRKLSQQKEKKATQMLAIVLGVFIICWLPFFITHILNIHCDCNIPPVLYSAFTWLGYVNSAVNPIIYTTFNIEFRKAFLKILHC
UniProt P31645, whole entry: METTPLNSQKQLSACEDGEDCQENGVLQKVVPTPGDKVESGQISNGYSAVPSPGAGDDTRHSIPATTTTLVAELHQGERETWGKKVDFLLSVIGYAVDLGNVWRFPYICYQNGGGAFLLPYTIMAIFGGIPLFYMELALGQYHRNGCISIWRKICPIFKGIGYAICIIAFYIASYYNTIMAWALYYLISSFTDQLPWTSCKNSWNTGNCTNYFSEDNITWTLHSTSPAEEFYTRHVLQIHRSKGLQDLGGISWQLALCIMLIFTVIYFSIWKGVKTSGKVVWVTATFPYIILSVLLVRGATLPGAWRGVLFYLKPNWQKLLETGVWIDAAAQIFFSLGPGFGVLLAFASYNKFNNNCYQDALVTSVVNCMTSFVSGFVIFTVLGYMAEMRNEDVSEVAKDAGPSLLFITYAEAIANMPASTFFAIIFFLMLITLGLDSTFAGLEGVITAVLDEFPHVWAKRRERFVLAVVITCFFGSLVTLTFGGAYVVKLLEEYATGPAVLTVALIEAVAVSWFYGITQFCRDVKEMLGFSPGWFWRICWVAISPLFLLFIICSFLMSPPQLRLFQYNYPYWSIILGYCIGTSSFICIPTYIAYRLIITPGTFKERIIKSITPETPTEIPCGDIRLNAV
UniProt P28223, whole entry: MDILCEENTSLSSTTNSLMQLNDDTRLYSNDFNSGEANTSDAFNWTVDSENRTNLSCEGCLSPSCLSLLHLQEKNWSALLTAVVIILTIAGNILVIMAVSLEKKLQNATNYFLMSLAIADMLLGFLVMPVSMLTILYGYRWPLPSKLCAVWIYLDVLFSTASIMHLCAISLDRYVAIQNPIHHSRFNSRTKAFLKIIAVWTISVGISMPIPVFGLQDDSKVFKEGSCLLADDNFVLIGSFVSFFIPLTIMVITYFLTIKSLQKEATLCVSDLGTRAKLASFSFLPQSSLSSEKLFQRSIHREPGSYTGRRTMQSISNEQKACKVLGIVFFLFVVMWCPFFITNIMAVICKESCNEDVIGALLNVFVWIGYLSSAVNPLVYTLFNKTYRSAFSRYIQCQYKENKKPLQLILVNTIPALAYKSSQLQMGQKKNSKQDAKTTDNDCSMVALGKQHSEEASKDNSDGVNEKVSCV

Columns and labels:
[1] = Duration of action and potency of mescaline derivatives; format: in vivo, humans; conditions: compared with mescaline
Excerpt: Together, the in vitro profiles of mescaline and its derivatives represented in FIG. 1 compared with that of psilocin and LSD indicate overall psychedelic properties of all compounds but also differences that likely manifest when used in humans. Accordingly, some mescaline derivatives will exert psychedelic acute effect profiles that are more beneficial to some patients including but not limited to: more overall positive effects, more or less perceptual effects, more emotional effects, less anxiety, less cardio-stimulant effects, less adverse effects, less nausea, longer and also shorter effects among other properties and compared to mescaline. Specifically, taken together the pharmacological data and structural specifics on the substances tested herein some compounds are of particular interest. FE and FP have a relatively short duration of action (<6 hours) compared with mescaline and potentially empathogenic MDMA-like effects.
The compounds represented by FIG. 1 act with shorter, with similar or with longer duration of action in human in comparison to the original mescaline molecule. This is triggered by modification of the molecular structure in FIG. 1.

D2 receptors = D2 receptors (Homo sapiens, UniProt P14416); conditions: cited from earlier work
5-HT transporter (SERT) = 5-HT transporter (SERT) (Homo sapiens, UniProt P31645); conditions: cited from earlier work
5-HT2A receptor = 5-HT2A receptor (Homo sapiens, UniProt P28223); conditions: cited from earlier work

Row | Compound | duration of action [1] [h] | affinity / activity at D2 receptors (in words) (D2 receptors) | interaction with / inhibition of SERT (in words) (5-HT transporter (SERT)) | agonism / stimulation of the 5-HT2A receptor (in words) (5-HT2A receptor)
1 | COc1cc(CCN)cc(OC)c1OCC(F)(F)F.Cl [TFE, 3,5-Dimethoxy-4-(2,2,2-trifluoroethoxy)phenethylamine hydrochloride] | 12 to 18 |  |  | 
2 | COc1cc(CCN)cc(OC)c1OCCCF.Cl [FP, 3,5-Dimethoxy-4-(3-fluoropropoxy)phenethylamine hydrochloride] | < 6 |  |  | 
3 | COc1cc(CCN)cc(OC)c1OCCF.Cl [FE, 3,5-Dimethoxy-4-(2-fluoroethoxy)phenethylamine hydrochloride] | < 6 |  |  | 
4 | COc1cc(CCN)cc(OC)c1OC(F)F.Cl [DFM, 4-Difluoromethoxy-3,5-dimethoxyphenethylamine hydrochloride] | 12 to 18 |  |  | 
5 | CN(C)CCc1c[nH]c2cccc(OP(=O)(O)O)c12 [psilocybin] |  | no affinity | moderate SERT inhibitor | agonists
